From paper PMC5241692 come the findings set out here.

Chains of the proteins cited; added tags and fusions are not shown.
UniProt Q63472: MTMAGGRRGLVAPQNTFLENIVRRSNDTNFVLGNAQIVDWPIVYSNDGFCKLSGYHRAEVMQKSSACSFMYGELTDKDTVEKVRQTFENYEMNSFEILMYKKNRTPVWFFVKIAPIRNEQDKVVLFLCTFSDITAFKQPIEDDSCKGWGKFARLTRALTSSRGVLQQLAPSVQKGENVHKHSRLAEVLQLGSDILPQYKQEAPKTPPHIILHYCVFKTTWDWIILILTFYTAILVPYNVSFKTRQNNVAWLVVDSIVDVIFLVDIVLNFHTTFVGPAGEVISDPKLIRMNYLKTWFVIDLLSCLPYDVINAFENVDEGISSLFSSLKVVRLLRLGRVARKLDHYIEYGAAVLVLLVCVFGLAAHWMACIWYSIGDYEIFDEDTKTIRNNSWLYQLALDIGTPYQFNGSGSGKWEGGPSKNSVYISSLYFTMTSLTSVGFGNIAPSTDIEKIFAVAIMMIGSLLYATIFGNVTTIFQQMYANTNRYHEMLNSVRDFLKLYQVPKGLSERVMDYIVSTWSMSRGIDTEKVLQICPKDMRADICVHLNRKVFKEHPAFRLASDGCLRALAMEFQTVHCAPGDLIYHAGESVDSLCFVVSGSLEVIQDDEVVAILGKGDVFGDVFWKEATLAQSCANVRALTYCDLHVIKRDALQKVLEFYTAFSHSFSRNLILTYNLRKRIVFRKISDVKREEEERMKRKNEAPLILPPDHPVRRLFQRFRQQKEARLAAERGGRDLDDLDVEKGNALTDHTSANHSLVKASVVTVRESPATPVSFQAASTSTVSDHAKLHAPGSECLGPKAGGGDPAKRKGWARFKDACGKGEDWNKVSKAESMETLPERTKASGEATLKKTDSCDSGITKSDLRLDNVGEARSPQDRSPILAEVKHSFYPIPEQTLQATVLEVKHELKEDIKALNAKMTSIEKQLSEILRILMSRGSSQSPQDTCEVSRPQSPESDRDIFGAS
UniProt Q14999: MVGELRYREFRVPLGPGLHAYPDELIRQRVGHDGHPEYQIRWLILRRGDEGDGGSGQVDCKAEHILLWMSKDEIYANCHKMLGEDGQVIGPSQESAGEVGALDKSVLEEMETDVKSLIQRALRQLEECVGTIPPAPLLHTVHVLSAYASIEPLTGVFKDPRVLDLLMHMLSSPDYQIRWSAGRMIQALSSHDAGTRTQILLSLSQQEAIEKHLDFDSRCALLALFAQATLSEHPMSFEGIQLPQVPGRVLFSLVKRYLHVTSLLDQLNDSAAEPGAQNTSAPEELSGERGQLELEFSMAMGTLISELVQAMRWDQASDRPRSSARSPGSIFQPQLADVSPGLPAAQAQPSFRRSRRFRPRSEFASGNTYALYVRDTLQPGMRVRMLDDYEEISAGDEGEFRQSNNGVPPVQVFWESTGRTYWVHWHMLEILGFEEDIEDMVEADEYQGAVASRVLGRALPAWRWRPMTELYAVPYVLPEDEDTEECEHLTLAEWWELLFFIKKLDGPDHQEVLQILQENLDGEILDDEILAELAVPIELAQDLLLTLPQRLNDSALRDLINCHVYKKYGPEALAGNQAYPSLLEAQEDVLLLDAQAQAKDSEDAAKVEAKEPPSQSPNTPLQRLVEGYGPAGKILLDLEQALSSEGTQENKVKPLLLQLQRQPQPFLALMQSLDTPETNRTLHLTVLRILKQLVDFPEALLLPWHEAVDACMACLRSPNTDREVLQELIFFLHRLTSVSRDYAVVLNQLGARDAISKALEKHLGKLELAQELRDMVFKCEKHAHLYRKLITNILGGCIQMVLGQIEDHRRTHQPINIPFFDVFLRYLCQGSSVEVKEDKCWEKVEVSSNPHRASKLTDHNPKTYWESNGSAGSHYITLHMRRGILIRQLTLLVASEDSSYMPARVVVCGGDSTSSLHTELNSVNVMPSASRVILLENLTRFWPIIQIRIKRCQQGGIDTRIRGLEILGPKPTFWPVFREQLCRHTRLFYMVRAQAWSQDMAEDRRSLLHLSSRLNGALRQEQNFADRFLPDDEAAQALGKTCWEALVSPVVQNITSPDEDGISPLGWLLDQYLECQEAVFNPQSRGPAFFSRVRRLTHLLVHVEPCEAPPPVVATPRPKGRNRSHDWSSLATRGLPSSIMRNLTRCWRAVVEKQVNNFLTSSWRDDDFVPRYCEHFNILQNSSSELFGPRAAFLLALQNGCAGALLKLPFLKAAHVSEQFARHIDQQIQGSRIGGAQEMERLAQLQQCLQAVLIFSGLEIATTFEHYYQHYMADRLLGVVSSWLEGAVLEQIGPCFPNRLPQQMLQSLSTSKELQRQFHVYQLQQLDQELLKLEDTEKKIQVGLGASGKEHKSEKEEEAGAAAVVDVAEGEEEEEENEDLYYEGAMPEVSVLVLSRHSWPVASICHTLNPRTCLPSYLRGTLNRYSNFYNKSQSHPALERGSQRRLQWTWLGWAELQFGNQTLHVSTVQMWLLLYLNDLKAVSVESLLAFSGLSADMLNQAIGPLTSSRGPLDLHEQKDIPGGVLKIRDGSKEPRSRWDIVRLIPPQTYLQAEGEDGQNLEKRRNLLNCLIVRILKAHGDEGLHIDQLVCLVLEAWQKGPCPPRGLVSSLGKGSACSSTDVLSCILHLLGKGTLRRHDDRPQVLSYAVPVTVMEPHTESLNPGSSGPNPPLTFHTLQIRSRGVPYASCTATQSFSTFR
UniProt D3ZEF4: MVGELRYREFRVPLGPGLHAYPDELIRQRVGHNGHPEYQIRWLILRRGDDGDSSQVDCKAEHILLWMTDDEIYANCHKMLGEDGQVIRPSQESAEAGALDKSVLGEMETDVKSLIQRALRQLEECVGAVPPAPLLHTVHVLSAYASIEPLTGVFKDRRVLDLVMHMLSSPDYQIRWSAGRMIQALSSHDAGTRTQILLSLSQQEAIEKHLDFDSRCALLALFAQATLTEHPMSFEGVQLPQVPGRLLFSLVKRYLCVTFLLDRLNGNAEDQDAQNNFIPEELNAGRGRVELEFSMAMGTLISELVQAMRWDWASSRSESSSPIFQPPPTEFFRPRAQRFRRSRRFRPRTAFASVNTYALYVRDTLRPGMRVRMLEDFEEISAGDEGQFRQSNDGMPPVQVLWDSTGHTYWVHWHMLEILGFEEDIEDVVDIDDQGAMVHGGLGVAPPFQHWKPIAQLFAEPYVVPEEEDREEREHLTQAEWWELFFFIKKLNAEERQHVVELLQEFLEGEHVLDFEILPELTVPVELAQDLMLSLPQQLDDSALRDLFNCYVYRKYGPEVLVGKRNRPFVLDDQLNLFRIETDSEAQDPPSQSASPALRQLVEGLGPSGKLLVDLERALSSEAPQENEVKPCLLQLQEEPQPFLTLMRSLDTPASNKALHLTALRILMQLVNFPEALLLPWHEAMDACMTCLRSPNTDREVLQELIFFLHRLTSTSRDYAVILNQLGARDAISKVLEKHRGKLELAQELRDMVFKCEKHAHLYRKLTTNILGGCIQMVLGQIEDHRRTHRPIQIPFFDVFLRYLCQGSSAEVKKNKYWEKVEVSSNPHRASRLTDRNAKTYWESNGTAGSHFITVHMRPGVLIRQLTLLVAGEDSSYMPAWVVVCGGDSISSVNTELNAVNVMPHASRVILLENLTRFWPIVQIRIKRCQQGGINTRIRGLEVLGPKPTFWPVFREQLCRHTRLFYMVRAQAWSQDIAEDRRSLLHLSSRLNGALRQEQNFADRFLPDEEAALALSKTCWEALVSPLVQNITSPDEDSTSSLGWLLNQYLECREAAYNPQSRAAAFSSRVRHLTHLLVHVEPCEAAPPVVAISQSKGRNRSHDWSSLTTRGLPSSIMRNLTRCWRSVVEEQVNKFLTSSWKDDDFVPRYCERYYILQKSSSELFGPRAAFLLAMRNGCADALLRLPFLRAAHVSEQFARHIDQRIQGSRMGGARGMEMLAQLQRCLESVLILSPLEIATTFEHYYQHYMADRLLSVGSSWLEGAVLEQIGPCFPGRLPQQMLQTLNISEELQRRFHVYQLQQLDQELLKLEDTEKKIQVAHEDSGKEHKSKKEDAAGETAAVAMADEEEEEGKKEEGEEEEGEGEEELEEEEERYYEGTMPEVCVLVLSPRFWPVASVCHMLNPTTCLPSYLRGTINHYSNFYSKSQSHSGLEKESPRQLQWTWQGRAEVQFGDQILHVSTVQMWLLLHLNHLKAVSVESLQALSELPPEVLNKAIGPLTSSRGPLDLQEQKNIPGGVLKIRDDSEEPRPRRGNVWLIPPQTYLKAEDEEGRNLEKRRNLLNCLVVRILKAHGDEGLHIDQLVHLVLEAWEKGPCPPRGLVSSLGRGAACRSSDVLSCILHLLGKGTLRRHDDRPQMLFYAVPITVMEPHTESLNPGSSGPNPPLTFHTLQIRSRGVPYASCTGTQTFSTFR

Assay [1] has as its target rat Eag1 (rEag1) potassium channel (rat) (UniProt Q63472). Put plainly: co-IP; HEK293T cells co-transfected; lysates in 1% Triton X-100 lysis buffer (100 mM NaCl, pH 7.5); protein A/G Sepharose beads coated with antibodies (anti-Myc or anti-rEag1), 16 hrs at 4 °C; immunoblotting.
Assay [2] deals with endogenous rEag1 in rat forebrain (rat (endogenous in forebrain)) (UniProt Q63472). The assay can be described thus: co-IP; endogenous proteins; crude membrane fractions from forebrain homogenates of adult rats; immunoprecipitated with the anti-rEag1 antibody or rabbit IgG; immunoblotting. In general terms: Immunoblotting shows a protein as a band on a membrane.

These are yes or no findings as the source states them, for the method shown. Binding seen in cells or lysates may run through a third protein. Some binding calls cover weakened binding; strength is not graded here.

As to “Myc-tagged human cullin 7 (from UniProt Q14999 1-1698)”, the binding entry in assay [1] was “binds”.

In the case of “endogenous Cul7 in rat forebrain (from UniProt D3ZEF4 1-1692)”, the binding entry in assay [2] is “binds”.
